Here are results for two substances from article PMC9186391.

By UniProt entry, the sequences of proteins in these tests, tags left out.
UniProt Q13838: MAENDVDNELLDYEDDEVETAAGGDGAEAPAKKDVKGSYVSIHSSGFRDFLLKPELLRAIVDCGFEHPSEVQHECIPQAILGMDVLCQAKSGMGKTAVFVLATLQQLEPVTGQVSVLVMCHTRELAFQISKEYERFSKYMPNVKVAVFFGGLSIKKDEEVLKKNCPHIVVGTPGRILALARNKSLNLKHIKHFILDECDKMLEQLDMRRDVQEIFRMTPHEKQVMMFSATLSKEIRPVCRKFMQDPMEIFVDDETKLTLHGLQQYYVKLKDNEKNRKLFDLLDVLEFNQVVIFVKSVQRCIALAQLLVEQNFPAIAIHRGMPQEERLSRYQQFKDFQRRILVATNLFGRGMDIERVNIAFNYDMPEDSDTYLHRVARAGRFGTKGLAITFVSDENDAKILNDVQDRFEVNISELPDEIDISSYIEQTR

The target of test [1] is T1, FLAG-HA-tagged RBM33 (UniProt Q96EV2).
T1 sequence: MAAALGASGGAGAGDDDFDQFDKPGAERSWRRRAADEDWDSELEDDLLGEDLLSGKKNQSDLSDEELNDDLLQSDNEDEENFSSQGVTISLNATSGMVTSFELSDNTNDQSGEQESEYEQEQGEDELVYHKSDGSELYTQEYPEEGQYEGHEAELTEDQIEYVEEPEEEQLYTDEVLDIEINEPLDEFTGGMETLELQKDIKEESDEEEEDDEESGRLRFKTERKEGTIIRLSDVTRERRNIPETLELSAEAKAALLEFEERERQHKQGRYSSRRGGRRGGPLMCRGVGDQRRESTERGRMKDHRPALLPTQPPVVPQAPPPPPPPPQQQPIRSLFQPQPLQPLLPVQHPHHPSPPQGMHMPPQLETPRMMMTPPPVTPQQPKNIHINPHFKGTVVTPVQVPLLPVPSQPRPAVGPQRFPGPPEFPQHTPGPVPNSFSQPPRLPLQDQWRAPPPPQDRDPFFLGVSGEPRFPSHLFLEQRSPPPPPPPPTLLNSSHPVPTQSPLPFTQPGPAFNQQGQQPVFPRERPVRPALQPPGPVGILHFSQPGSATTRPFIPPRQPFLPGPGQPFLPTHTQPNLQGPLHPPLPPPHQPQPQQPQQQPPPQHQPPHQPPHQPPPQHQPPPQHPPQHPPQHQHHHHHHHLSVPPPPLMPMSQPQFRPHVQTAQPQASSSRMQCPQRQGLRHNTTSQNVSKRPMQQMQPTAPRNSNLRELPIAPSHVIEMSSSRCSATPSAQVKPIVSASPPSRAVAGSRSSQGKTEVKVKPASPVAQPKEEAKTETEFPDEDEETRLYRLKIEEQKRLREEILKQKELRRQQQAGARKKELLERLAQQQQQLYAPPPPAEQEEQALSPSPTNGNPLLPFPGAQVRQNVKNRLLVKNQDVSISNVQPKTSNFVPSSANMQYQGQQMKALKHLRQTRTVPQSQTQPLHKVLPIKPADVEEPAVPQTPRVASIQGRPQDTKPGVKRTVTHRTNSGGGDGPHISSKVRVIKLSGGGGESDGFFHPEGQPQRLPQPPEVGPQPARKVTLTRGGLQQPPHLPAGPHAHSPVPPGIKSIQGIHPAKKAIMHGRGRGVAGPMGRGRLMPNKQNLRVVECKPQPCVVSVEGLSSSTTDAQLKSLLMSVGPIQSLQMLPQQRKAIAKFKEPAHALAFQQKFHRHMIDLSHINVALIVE
The experiment in a line: co-IP; coimmunoprecipitation of endogenous proteins with FH-RBM33, detected by Western blot. In general terms: Immunoblotting shows a protein as a band on a membrane.

Test [2] concerns the target T2, in vitro translated FLAG-HA-tagged RBM33 (UniProt Q96EV2).
T2 sequence: T1 sequence
The experiment in a line: co-IP; coimmunoprecipitation of in vitro translated FH-RBM33 and V5-tagged proteins, detected by Western blot; FH-GFP as negative control.

No constants are given. Whether binding was seen depends on the method and setting. In cells and extracts the contact can be indirect. Some entries that bind do so weakly or less than the wild type. Sequences can lack the tags named with a protein.

On to UAP56 (from UniProt Q13838 1-428), for which the binding result in test [1] was “binds”. As to “V5-tagged UAP56, in vitro translated (from UniProt Q13838 1-428)”, in test [2], the binding result is on record as “binds”.
